Laboratory results from PMC3835791, “Non-Invasive Imaging of Tumors by Monitoring Autotaxin Activity Using an Enzyme-Activated Near-Infrared Fluorogenic Substrate” (PLoS ONE, 2013).

Tested on: MDA-MB-231 orthotopic tumor (ATX activity)
Assay: In vivo NIRF imaging and ex vivo tissue analysis of mice with orthotopic tumors
Details: AR-2 i.v. 0.5 mg/kg, imaged 48 h after injection
From the text: Animal studies were approved by the Institutional Animal Care and Use Committee (IACUC) of the University of Utah (protocol numbers 10-10016 and 12-05013). Tumors in mice were established as previously described, [41]. Briefly, approximately ten-week old female nude (Nu/Nu) mice (Charles River Laboratories International, Wilmington, MA) were lightly anesthetized with isoflurane and subcutaneously inoculated with MDA-MB-231 cells in the left thoracic mammary glands. Prior to inoculation, cells were suspended in Extracel to make 5×10^7 cells/mL and each mouse received 0.1 mL of Extracel tumor suspension. To reduce auto-fluorescence arising from the feed, mice were switched to specially formulated diet (2920X, Harlan Laboratories, WI) at least two days prior to imaging.
Six weeks after tumor graft, mice were imaged using AR-2. […] The fluorescence signals from acquired images were analyzed using Pearl Impulse Software v 2.0 (LI-COR Biosciences) according the manufacturer's protocols. […]
Animals were sacrificed, organs were dissected and weighed, then ex vivo fluorescence was imaged and quantified as previously described. […] ATX levels were determined by diluting supernatants ten times in RD5-10 and assayed using a Human ENPP-2/Autotaxin ELISA (R&D Systems, Minneapolis, MN) and an Autotaxin Sandwich ELISA (Echelon Biosciences, Inc., Salt Lake City, UT) using the manufacturers' protocol. […]

CC1(C)C(/C=C/C2=C(Oc3ccc(S(=O)(=O)O)cc3)C(=C/C=C3/N(CCCCS(=O)(=O)O)c4ccc(S(=O)(=O)[O-])cc4C3(C)C)/CCC2)=[N+](CCCCCC(=O)NCCCCCC(=O)OC[C@@H](O)COP(=O)(O)OCCNC(=O)CCOCCOCCOCCOCCNC(=O)CCCCCN2/C(=C/C=C3\CCCC(/C=C/C4=[N+](CCCS(=O)(=O)O)c5ccc(N(CCCS(=O)(=O)O)CCCS(=O)(=O)O)cc5C4(C)C)=C3Cl)C(C)(C)c3c2ccc2cc(S(=O)(=O)[O-])ccc32)c2ccc(S(=O)(=O)O)cc21 [AR-2]
NIRF signals in whole bodies of live tumor-bearing animals: tumor-specific and elevated compared to the rest of the body
